According to PubChem BioAssay AID330 (DTP/NCI, 2004):
The list does not hold the whole screen: it gathers tests that were run many times, whatever their T/C, doses with no T/C, and many T/C values between a quarter and a half above the control. Further doses and runs are listed elsewhere. T/C is the treated group as % of the vehicle group. Some entries give survivors of the animals treated and no T/C: the source holds a T/C of zero for them, seemingly a mark for toxic or unscored doses. Some doses without a T/C left all or most animals alive at the check, yet need not have been tolerated: the source hardly ever lists a survival T/C far under the control, and the zero likely stands for such cases as well. Survivors were counted at the toxicity check, usually on the fifth day, unless a day is given; later deaths do not show. Schedule codes are those of the source, taken here to give the interval after Q, in days (D) or hours (H), and the number of doses after X. Some entries were tested several times; the results are listed from low to high. For survival time, the PubChem record calls one and a half times the control and up active, and a quarter to a half above the control has no call in these data; cut-offs in other NCI protocols can differ. Some T/C values carry the count of animals alive at the toxicity check (mostly the fifth day); without a count, all were alive then.

Tested on: P388 leukemia ip, CD2F1 mice, survival T/C
Assay: NCI In Vivo Anticancer Drug Screen. Data for tumor model P388 Leukemia (intraperitoneal) in CD2F1 (CDF1) mice
Conditions: T/C endpoint: median survival time, higher T/C = longer survival
[1] = dose: 100.0 mg/kg/injection, schedule: Q01DX009 (ip), vehicle: saline with Tween-80
[2] = dose: 200.0 mg/kg/injection, schedule: Q01DX009 (ip), vehicle: saline with Tween-80
[3] = dose: 240.0 mg/kg/injection, schedule: Q01DX005 (ip), vehicle: saline with Tween-80
[4] = dose: 50.0 mg/kg/injection, schedule: Q01DX005 (ip), vehicle: saline with Tween-80
[5] = dose: 100.0 mg/kg/injection, schedule: Q01DX005 (ip), vehicle: saline with Tween-80
[6] = dose: 200.0 mg/kg/injection, schedule: Q01DX005 (ip), vehicle: saline with Tween-80
[7] = dose: 50.0 mg/kg/injection, schedule: Q01DX009 (ip), vehicle: distilled water + Tween-80
[8] = dose: 100.0 mg/kg/injection, schedule: Q01DX009 (ip), vehicle: distilled water + Tween-80

COc1cccc(CSC(=N)N)c1
survivor count (dose: 100.0 mg/kg/injection, schedule: Q01DX009 (ip), vehicle: Klucel (hydroxypropylcellulose) (HPC)): 4 of 6 | survivor count (dose: 200.0 mg/kg/injection, schedule: Q01DX009 (ip), vehicle: Klucel (hydroxypropylcellulose) (HPC)): 0 of 6

CC1NC(=O)N(C(C)(C)C)C1=O (stereo unspecified)
survivor count (dose: 400.0 mg/kg/injection, schedule: Q01DX005 (ip), vehicle: saline): 2 of 5 and 3 of 6

C[C@H]1C[C@@H]2[C@H]([C@@H](O)C[C@@]3(C)[C@H]2CC[C@]3(O)C(=O)CO)[C@@]2(C)C=CC(=O)C=C12
survivor count [1]: 6 of 6 | T/C (dose: 200.0 mg/kg/injection, schedule: Q04DX003 (ip), vehicle: saline with Tween-80): 137 % of control

N=C1SCc2ccc3ccccc3c21
T/C [2]: 135 % of control

COc1cc(N=Nc2ccc(N=Nc3ccc4cc(S(=O)(=O)O)cc(S(=O)(=O)O)c4c3)c(C)c2)c(C)cc1NC(=O)c1ccc(NC(=O)c2ccc(N)cc2)cc1
T/C (dose: 100.0 mg/kg/injection, schedule: Q01DX005 (ip), vehicle: Klucel (hydroxypropylcellulose) (HPC)): 126 % of control

Cc1cccc2c(OCC3CO3)cc(=O)[nH]c12 (stereo unspecified)
T/C (dose: 100.0 mg/kg/injection, schedule: Q01DX005 (ip), vehicle: saline with Tween-80, evaluated on day 24): 133 % of control | T/C (dose: 100.0 mg/kg/injection, schedule: Q01DX005 (ip), vehicle: saline with Tween-80, evaluated on day 30): 130 % of control | T/C (dose: 200.0 mg/kg/injection, schedule: Q01DX005 (ip), vehicle: saline with Tween-80, evaluated on day 24): 130 % of control [4 of 6 alive] | T/C (dose: 200.0 mg/kg/injection, schedule: Q01DX005 (ip), vehicle: saline with Tween-80, evaluated on day 30): 133 % of control | survivor count (dose: 400.0 mg/kg/injection, schedule: Q01DX005 (ip), vehicle: saline with Tween-80): 2 of 6

O=Cc1ccccc1
survivor count (dose: 400.0 mg/kg/injection, schedule: Q01DX009 (ip), vehicle: Klucel (hydroxypropylcellulose) (HPC)): 4 of 6 | survivor count (dose: 800.0 mg/kg/injection, schedule: Q01DX009 (ip), vehicle: Klucel (hydroxypropylcellulose) (HPC)): 0 of 6 | survivor count (dose: 1600.0 mg/kg/injection, schedule: Q01DX009 (ip), vehicle: Klucel (hydroxypropylcellulose) (HPC)): 0 of 6 | survivor count (dose: 3200.0 mg/kg/injection, schedule: Q01DX009 (ip), vehicle: Klucel (hydroxypropylcellulose) (HPC)): 0 of 6

CC(CN)OC12CC3CC(CC(C3)C1)C2 (stereo unspecified)
survivor count [3]: 0 of 6

CN(CCC#N)c1ccc(/C=C(\C#N)C(N)=O)cc1
survivor count (dose: 80.0 mg/kg/injection, schedule: Q01DX009 (ip), vehicle: saline with Tween-80): 6 of 6

CCCN(CCC)/N=C/c1c2c(O)c3c(O)c(C)c4c(c3c1O)C(=O)C(C)(O/C=C/C(OC)C(C)C(OC(C)=O)C(C)C(O)C(C)C(O)C(C)/C=C/C=C(C)C(=O)N2)O4 (stereo unspecified)
survivor count (dose: 240.0 mg/kg/injection, schedule: Q01DX005 (ip), vehicle: Klucel (hydroxypropylcellulose) (HPC)): 4 of 6

CC1=CC(=C2C=CC(=[N+](C)C)C=C2)C=C(C)S1
T/C (dose: 12.5 mg/kg/injection, schedule: Q01DX009 (ip), vehicle: distilled water + Tween-80 + alcohol): 126 % of control | survivor count (dose: 25.0 mg/kg/injection, schedule: Q01DX009 (ip), vehicle: distilled water + Tween-80 + alcohol): 3 of 6 and 4 of 6 | survivor count (dose: 50.0 mg/kg/injection, schedule: Q01DX009 (ip), vehicle: distilled water + Tween-80 + alcohol): 0 of 6 | survivor count (dose: 100.0 mg/kg/injection, schedule: Q01DX009 (ip), vehicle: distilled water + Tween-80 + alcohol): 0 of 6 | survivor count (dose: 200.0 mg/kg/injection, schedule: Q01DX009 (ip), vehicle: distilled water + Tween-80 + alcohol): 0 of 6

COc1cc2c(cc1-c1coc3cc(O)ccc3c1=O)OCO2
survivor count (dose: 8.5 mg/kg/injection, schedule: Q01DX005 (ip), vehicle: Klucel (hydroxypropylcellulose) (HPC)): 6 of 6 | survivor count (dose: 17.0 mg/kg/injection, schedule: Q01DX005 (ip), vehicle: Klucel (hydroxypropylcellulose) (HPC)): 6 of 6 | survivor count (dose: 34.0 mg/kg/injection, schedule: Q01DX005 (ip), vehicle: Klucel (hydroxypropylcellulose) (HPC)): 6 of 6

CCOC(=O)/C(C#N)=C\c1ccc(OCc2ccccc2)c(OCc2ccccc2)c1
survivor count (dose: 50.0 mg/kg/injection, schedule: Q01DX005 (ip), vehicle: Klucel (hydroxypropylcellulose) (HPC)): 6 of 6

CCOC(=O)C1=CNc2ccccc2N=C1N
survivor count [4]: 2 of 5 | survivor count [5]: 0 of 5 | survivor count [6]: 0 of 5

CC1(O)C=CC(=O)C=C1
T/C (dose: 25.0 mg/kg/injection, schedule: Q01DX009 (ip), vehicle: distilled water + Tween-80): 127 % of control | T/C [7]: 136 % of control [5 of 6 alive] | survivor count [8]: 0 of 6

O=C(Nc1ccc(-c2c[nH]c(=O)c([N+](=O)[O-])c2)cc1)OCc1ccccc1
survivor count (dose: 25.0 mg/kg/injection, schedule: Q01DX009 (ip), vehicle: saline with Tween-80): 6 of 6 | survivor count (dose: 50.0 mg/kg/injection, schedule: Q01DX009 (ip), vehicle: saline with Tween-80): 6 of 6 | survivor count [1]: 6 of 6 | survivor count [2]: 6 of 6

O=[N+]([O-])c1ccc(/C=C/[n+]2ccc3ccccc3c2)o1
survivor count (dose: 12.5 mg/kg/injection, schedule: Q01DX009 (ip), vehicle: saline): 3 of 6 | survivor count (dose: 25.0 mg/kg/injection, schedule: Q01DX009 (ip), vehicle: saline): 1 of 6 | survivor count (dose: 50.0 mg/kg/injection, schedule: Q01DX009 (ip), vehicle: suspension in saline): 1 of 6 | survivor count (dose: 100.0 mg/kg/injection, schedule: Q01DX009 (ip), vehicle: suspension in saline): 0 of 6 | survivor count (dose: 200.0 mg/kg/injection, schedule: Q01DX009 (ip), vehicle: suspension in saline): 0 of 6

Cc1cc(NCCCCCCCCNc2cc(C)nc3cc(N)ccc23)c2ccc(N)cc2n1
T/C (dose: 3.13 mg/kg/injection, schedule: Q01DX009 (ip), vehicle: other): 133 % of control | T/C (dose: 3.13 mg/kg/injection, schedule: Q01DX009 (ip), vehicle: water): 129 % of control | T/C (dose: 6.25 mg/kg/injection, schedule: Q01DX009 (ip), vehicle: other): 134 % of control | T/C (dose: 6.25 mg/kg/injection, schedule: Q01DX009 (ip), vehicle: water): 132 % of control | T/C (dose: 12.5 mg/kg/injection, schedule: Q01DX009 (ip), vehicle: other): 133 % of control [5 of 6 alive] | T/C (dose: 12.5 mg/kg/injection, schedule: Q01DX009 (ip), vehicle: water): 136 % of control | survivor count (dose: 25.0 mg/kg/injection, schedule: Q01DX009 (ip), vehicle: other): 2 of 6 | survivor count (dose: 25.0 mg/kg/injection, schedule: Q01DX009 (ip), vehicle: water): 3 of 6 | survivor count (dose: 50.0 mg/kg/injection, schedule: Q01DX009 (ip), vehicle: other): 0 of 6 | survivor count (dose: 100.0 mg/kg/injection, schedule: Q01DX009 (ip), vehicle: other): 0 of 6 | survivor count (dose: 200.0 mg/kg/injection, schedule: Q01DX009 (ip), vehicle: other): 0 of 6 | survivor count (dose: 400.0 mg/kg/injection, schedule: Q01DX009 (ip), vehicle: other): 0 of 6

CCn1c(C)c(COC(=O)NC)c(COC(=O)NC)c1-c1ccc(Cl)c(Cl)c1
T/C [7]: 149 % of control [4 of 6 alive] | survivor count [7]: 5 of 6 | survivor count [8]: 0 of 6 and 3 of 6

COC1=CC(=O)C2CC=CC(CC(=O)O)C2(C)C1=O (stereo unspecified)
survivor count (dose: 200.0 mg/kg/injection, schedule: Q01DX005 (ip), vehicle: Klucel (hydroxypropylcellulose) (HPC)): 0 of 5

C[Si]1(C)O[Si](C)(C)N(N)P(=S)(Oc2ccccc2)N1N
survivor count [5]: 0 of 5 | survivor count [6]: 0 of 5

COc1ccc(OC)c2c(Cl)cc(N(C)C)nc12
survivor count [3]: 4 of 6

C=C1CC2C3CCC=C3C(c3ccc(OC)cc3)C2C1=O (stereo unspecified)
survivor count (dose: 400.0 mg/kg/injection, schedule: Q01DX001 (ip), vehicle: Klucel (hydroxypropylcellulose) (HPC)): 0 of 6

CS(=O)(=O)c1snc(N)c1C#N
survivor count [4]: 0 of 6 | survivor count [5]: 0 of 6 | survivor count [6]: 0 of 6
